{
  "source": "PubChem BioAssay AID540256",
  "about": "(National Center for Advancing Translational Sciences (NCATS), 2011)",
  "note": "In all, about 300,000 compounds went through this assay and about 3,700 (1.2%) were called active. Inconclusive means that the source gave no clear call. Such entries were picked first, then a sample of the others. Calls follow the shape of the full dose curve; tested in HEK293 cells. A potency beside an inconclusive call is a rough fit, not a confirmed value. % is scaled to controls: 0 for no effect and ±100 for the full control effect; potency is read from the fitted curve at half-maximal effect.",
  "data": [
    {"test": "qHTS for Inhibitors of binding or entry into cells for Lassa Virus; also: nearly all actives have a fitted effect of over 50% in size", "settings": "Lassa virus pseudotype entry inhibition, cell reporter; activity change, negative = inhibition: at 37.9 µM (top of the series) unless noted", "values": [
      {"smiles": "O=C1NC(c2cccs2)Nc2sc3c(c21)CCCC3", "note": "(stereo not given)", "Potency": "inconclusive: 0.251 µM [activator, full curve, poor fit]"},
      {"smiles": "COc1ccccc1CN1CC(C(=O)NCc2nc3ccccc3n2C)CCC1=O", "note": "(stereo not given)", "activity change, negative = inhibition": "inactive: 0.73%"},
      {"smiles": "CCOC(=O)c1c(NC(=O)CSc2cn(CCNC(=O)c3ccccc3OC)c3ccccc23)sc2c1CCC2", "Potency": "inconclusive: 4.47 µM [inhibitor, full curve, poor fit]"},
      {"smiles": "CCCS(=O)(=O)N1CCCC(C(=O)N2CCC(Cc3ccccc3)CC2)C1", "note": "(stereo not given)", "Potency": "inconclusive: 35.5 µM [inhibitor, single point]"},
      {"smiles": "CCOC(=O)c1c(/N=C/N(C)C)sc(C=O)c1-c1ccccc1", "activity change, negative = inhibition": "inactive: 8.43%"},
      {"smiles": "COc1ccc(CC(NC(C)=O)C(=O)NC2CCN(C(=O)Nc3ccc(C#N)cc3)CC2)cc1OC", "note": "(stereo not given)", "Potency": "inconclusive: 6.51 µM [activator, single point]"},
      {"smiles": "CN1CC2=Cc3ccccc3OC23Oc2ccccc2C=C3C1", "Potency": "inconclusive: 11.2 µM [inhibitor, partial curve, poor fit]"},
      {"smiles": "c1ccc2cc3c(NCCN4CCOCC4)ccnc3cc2c1", "Potency": "inconclusive: 16.4 µM [inhibitor, single point]"},
      {"smiles": "Cc1oc2ccc(O)c(CN3CCN(C)CC3)c2c1C(=O)Nc1cccc(C(F)(F)F)c1", "Potency": "inconclusive: 35.5 µM [inhibitor, single point]"},
      {"smiles": "O=C(CSc1nc2c([nH]c3ccccc32)c(=O)n1-c1cccc(Cl)c1)N1CCOCC1", "activity change, negative = inhibition": "inactive: -21.3% [at 46.1 µM]"},
      {"smiles": "COc1ccc(OC)c(C(=O)c2coc3ccc(O)cc23)c1", "Potency": "inconclusive: 32.6 µM [inhibitor, partial curve, poor fit]"},
      {"smiles": "Nc1cc2c3c(cccc3c1)C(=O)N(CCN1CCCC1)C2=O", "Potency": "inconclusive: 2.51 µM [inhibitor, full curve, poor fit]"},
      {"smiles": "CCc1ccc(C(=O)CN(C#N)c2nc(C)cc(C)n2)cc1", "Potency": "inconclusive: 14.1 µM [inhibitor, single point]"},
      {"smiles": "CCOC(=O)C1=C(COC(=O)/C=C/c2ccc(OC)cc2)NC(=O)NC1C", "note": "(stereo not given)", "Potency": "inconclusive: 1 µM [inhibitor, full curve]"},
      {"smiles": "O=C(NNc1ccc(C(F)(F)F)cc1[N+](=O)[O-])c1ccc(NS(=O)(=O)c2ccc(F)cc2)cc1", "Potency": "inconclusive: 8.91 µM [inhibitor, partial curve, poor fit]"},
      {"smiles": "O=C(O)CSc1nnc(C2CC2)n1-c1ccccc1", "Potency": "inconclusive: 0.073 µM [activator, full curve, poor fit]"},
      {"smiles": "Cc1ccc(NC(=O)CC2SC(=O)N(c3ccccc3)C2=O)cc1", "note": "(stereo not given)", "activity change, negative = inhibition": "inactive: 5.58%"},
      {"smiles": "COc1ccc(C)cc1NC(=O)c1cccn(Cc2ccccc2Cl)c1=O", "Potency": "inconclusive: 31.6 µM [activator, single point]"},
      {"smiles": "O=C(NCCO)c1cccc(Cl)c1", "activity change, negative = inhibition": "inactive: -1.69%"},
      {"smiles": "CC1CC2(C)Oc3ccccc3CC2C(C)C1CNCCCN(C)C", "note": "(stereo not given)", "Potency": "inconclusive: 2.51 µM [inhibitor, full curve, poor fit]"},
      {"smiles": "CC(C)OC(=O)c1cccc2c1C(=O)c1ccccc1-2", "activity change, negative = inhibition": "inactive: 26.2% [at 46.1 µM]"},
      {"smiles": "c1ccc(/N=C2\\N=C(Nc3ccccn3)c3ccccc32)nc1", "Potency": "inconclusive: 5.62 µM [inhibitor, full curve, poor fit]"},
      {"smiles": "CCCCN(CC)Cc1c(C)[nH]c2c(ccc3ccccc32)c1=O", "Potency": "inconclusive: 5.01 µM [inhibitor, single point]"},
      {"smiles": "CCCc1ccc(C(=O)O/N=C(\\N)c2ccccn2)cc1", "Potency": "active: 1.41 µM"},
      {"smiles": "O=C(Nc1cc(Oc2ccccc2)cc([N+](=O)[O-])c1)C12CC3CC(C1)CC(n1cnc(Cl)n1)(C3)C2", "Potency": "inconclusive: 25.9 µM [inhibitor, single point]"},
      {"smiles": "O=[N+]([O-])c1ccc(Cl)c(/C=N/Nc2nc(N3CCOCC3)nc(N3CCOCC3)n2)c1", "activity change, negative = inhibition": "inactive: -12.7%"},
      {"smiles": "CC(=O)c1c(C)n(-c2ccccc2)c2ccc(O)cc12", "activity change, negative = inhibition": "inactive: 2.44%"},
      {"smiles": "CCOc1ccc(/C=N/NC(=O)Cc2csc(Nc3cccc(C(F)(F)F)c3)n2)cc1", "Potency": "inconclusive: 10 µM [inhibitor, partial curve, poor fit]"},
      {"smiles": "O=S1(=O)CC(O)C(NCc2ccco2)C1", "note": "(stereo not given)", "activity change, negative = inhibition": "inactive: 0.0176%"},
      {"smiles": "COC(=O)[C@@H]1C2CCC(C(=O)Nc3ccccc3)(CC2)[C@@H]1C(=O)OC", "activity change, negative = inhibition": "inactive: 9.25%"},
      {"smiles": "Cc1cc(C(=O)CSc2nnnn2-c2ccccc2)c(C)n1-c1ccc2c(c1)OCO2", "Potency": "active: 6.51 µM"},
      {"smiles": "COc1ccc(-c2ccc(C(=S)N3CCN(C(C)=O)CC3)o2)cc1", "Potency": "inconclusive: 13 µM [inhibitor, partial curve, poor fit]"},
      {"smiles": "COc1cccc(CNC(=O)c2cc3cc(C)ccc3n2C)c1", "Potency": "inconclusive: 3.98 µM [inhibitor, full curve, poor fit]"},
      {"smiles": "O=C1CC(N2CCN(c3ccc(Cl)cc3)CC2)C(=O)N1c1ccccc1", "note": "(stereo not given)", "activity change, negative = inhibition": "inactive: 6.45% [at 46.1 µM]"},
      {"smiles": "CC(C)N(Cc1nccn1C)C(=O)c1cc(COc2ccc(F)cc2Cl)on1", "activity change, negative = inhibition": "inactive: -3.92%"},
      {"smiles": "Cc1ccc(C(=O)NCc2ccccn2)c(Cl)c1", "Potency": "inconclusive: 10 µM [activator, partial curve, poor fit]"},
      {"smiles": "COc1ccc(OC)c(CN2CCN(C(=O)c3ccco3)CC2)c1", "activity change, negative = inhibition": "inactive: -1.46%"},
      {"smiles": "COc1cc(N)c(Cl)cc1C(=O)OCCN1CCCCC1", "Potency": "inconclusive: 29.1 µM [activator, single point]"},
      {"smiles": "Cc1[nH]cnc1C(=O)N/N=C/c1c(Cl)cccc1Cl", "activity change, negative = inhibition": "inactive: 8.27% [at 46.1 µM]"},
      {"smiles": "Cn1c(=O)c2c(nc(Oc3ccc(-c4ccccc4)cc3)n2C)n(C)c1=O", "Potency": "inconclusive: 3.26 µM [inhibitor, partial curve, poor fit]"},
      {"smiles": "COc1ccc(-c2ccc(C#N)c(SCC(=O)NCc3ccco3)n2)cc1OC", "Potency": "inconclusive: 20 µM [inhibitor, single point]"},
      {"smiles": "COc1nc(N/N=C/c2ccc(-c3ccccc3[N+](=O)[O-])o2)nc(N2CCOCC2)n1", "activity change, negative = inhibition": "inactive: 1.43%"},
      {"smiles": "COc1ccc2c(c1OC)C(=O)N(c1ccccn1)C2", "Potency": "inconclusive: 0.631 µM [activator, full curve, poor fit]"},
      {"smiles": "Cc1nc2c(C)cccc2cc1C(=O)N/N=C/c1ccc(O)cc1", "Potency": "inconclusive: 8.91 µM [inhibitor, partial curve]"},
      {"smiles": "O=C(NC(=S)Nc1ccc(N2CCCC2)cc1)c1ccccc1[N+](=O)[O-]", "activity change, negative = inhibition": "inactive: -31.4%"},
      {"smiles": "CCC(C)NC(=O)/C=C1\\Sc2ccccc2NC1=O", "note": "(stereo not given)", "activity change, negative = inhibition": "inactive: 11.7%"},
      {"smiles": "CCN1c2ccccc2-c2nc(SCC(=O)Nc3cc(OC)cc(OC)c3)ncc2S1(=O)=O", "Potency": "inconclusive: 6.31 µM [inhibitor, single point]"},
      {"smiles": "COc1ccc(C(c2nnnn2C2CCCC2)N2CCN(c3ccccc3)CC2)cc1", "note": "(stereo not given)", "Potency": "inconclusive: 2.91 µM [inhibitor, partial curve, poor fit]"},
      {"smiles": "COC(=O)c1cc(NC(=O)c2cc(-c3ccc(C(F)(F)F)cc3)oc2C(F)(F)F)ccc1N1CCOCC1", "Potency": "inconclusive: 14.1 µM [inhibitor, partial curve, poor fit]"},
      {"smiles": "COc1ccc(-c2nn(C)c3sc(C(=O)Nc4cc(OC)c(OC)c(OC)c4)cc23)cc1OC", "Potency": "inconclusive: 15.8 µM [inhibitor, single point]"},
      {"smiles": "CCn1cc(C(=O)OCc2ccccc2)c(=O)c2ccc(C)nc21", "activity change, negative = inhibition": "inactive: -2.19%"},
      {"smiles": "CCCCC(CC)CNC(=O)c1ccc(Cn2c(=O)[nH]c3cc(OC)c(OC)cc3c2=O)cc1", "note": "(stereo not given)", "Potency": "inconclusive: 2.51 µM [activator, full curve, poor fit]"},
      {"smiles": "COc1ccccc1-c1cc(C(=O)NC(C)C)no1", "Potency": "inconclusive: 3.66 µM [activator, full curve]"},
      {"smiles": "CCOc1ccccc1NC(=O)CSc1nnc(CC)c(CC)n1", "Potency": "inconclusive: 35.5 µM [activator, single point]"},
      {"smiles": "O=C(NC1CC1)c1sc2ccccc2c1Cl", "activity change, negative = inhibition": "inactive: 10.4% [at 46.1 µM]"},
      {"smiles": "O=C(O)c1ccccc1N/N=C/c1cc(Br)cc(Br)c1O", "Potency": "inconclusive: 10 µM [inhibitor, partial curve, poor fit]"},
      {"smiles": "O=C(Cn1c(=O)c(=O)n(Cc2ccccc2)c2ccc(Cl)cc21)Nc1cccc(F)c1", "Potency": "inconclusive: 5.01 µM [inhibitor, single point]"},
      {"smiles": "O=C(OCCN1C(=O)c2ccccc2C1=O)c1cc(S(=O)(=O)N2CCOCC2)ccc1Cl", "activity change, negative = inhibition": "inactive: -14.4%"},
      {"smiles": "CC(=O)N1CCN(c2ccc(S(C)(=O)=O)cc2[N+](=O)[O-])CC1", "activity change, negative = inhibition": "inactive: 4.33%"},
      {"smiles": "Cc1nc(N2CCCCC2)sc1C(=O)c1ccc(SCCO)c([N+](=O)[O-])c1", "Potency": "inconclusive: 20 µM [inhibitor, single point]"},
      {"smiles": "COc1ccc(CCNC(=O)c2c(Nc3ccccc3C)sc(C(=O)c3ccccc3)c2N)cc1OC", "Potency": "inconclusive: 25.1 µM [inhibitor, single point]"},
      {"smiles": "CCOC(=O)c1cc2c(=O)n3ccccc3nc2n(CC2CCCO2)c1=NC(=O)c1ccccc1OCC", "note": "(stereo not given)", "Potency": "inconclusive: 0.631 µM [inhibitor, full curve, poor fit]"},
      {"smiles": "Cc1ccc(N2C(=O)N(CC(=O)N3CCOCC3)C(=O)C2C)cc1", "note": "(stereo not given)", "Potency": "inconclusive: 14.1 µM [activator, single point]"},
      {"smiles": "CCn1nnnc1NC(=O)c1ccc2ccccc2c1", "activity change, negative = inhibition": "inactive: -15.6%"},
      {"smiles": "O=C(NC(=S)Nc1ncccn1)c1ccccc1Cl", "activity change, negative = inhibition": "inactive: 6.49%"},
      {"smiles": "O=C(COc1ccc(Br)cc1Br)NC(=S)N1CCCc2ccccc21", "Potency": "inconclusive: 0.092 µM [inhibitor, full curve, poor fit]"},
      {"smiles": "Cc1ccc(S(=O)(=O)N2CCN(C(=O)Cn3c(=O)oc4ccccc43)CC2)cc1", "activity change, negative = inhibition": "inactive: -1.89%"},
      {"smiles": "CCCC(=O)Nc1ccc(S(=O)(=O)N2CCC(c3nc4ccccc4[nH]3)CC2)cc1", "activity change, negative = inhibition": "inactive: 1.42%"},
      {"smiles": "O=[N+]([O-])c1cc(Cl)c(O)c2ncccc12", "Potency": "inconclusive: 25.1 µM [inhibitor, single point]"},
      {"smiles": "Cc1ccc(CNC(=O)C2CCCN(c3nn4cc(-c5ccc(C)cc5)nc4s3)C2)cc1", "note": "(stereo not given)", "Potency": "inconclusive: 10 µM [activator, partial curve, poor fit]"}
    ]}
  ]
}
